Laboratory results reported in PMC12670160, “A drug-repurposing screen of FDA- and EMA-approved drugs identifies two NF-κB inhibitors active against eumycetoma” (Journal of Antimicrobial Chemotherapy, 2025).
Counter-ions that a name gives are not always drawn. Like-named read-outs stand apart in the source and are kept apart here. Among all 5,300 compounds or so, about 130 (2.5%) showed an effect of 50% or more. Some of the results follow. Numbered stars: 1 amine (or outer) side, 2 acyl side, 3 side chain; on linkers, the order of the positions; unused ones are H or OH. Bridge positions count the residues as written; N and C are the ends. Square brackets hold non-standard residues; d marks the D form. Peptide text beside a SMILES is read from it. I, II: the chains in the order shown. Actinocin(9to1) = Cc1c2oc3c(C)ccc(C(=O)[*:1])c3nc-2c(C(=O)[*:2])c(N)c1=O; NMeV = CN[C@H](C(=O)O)C(C)C; Sar = CNCC(=O)O

Tested on: M. mycetomatis strain mm55
Details: primary screen, metabolic activity vs growth control, 96 h, 2 µM, inhibitor

Structure (SMILES)	% viability	% viability (Madurella mycetomatis metabolic activity at 2µM (%))
CN(C)CCn1nnnc1SCC1=C(C(=O)O)N2C(=O)[C@@H](NC(=O)Cc3csc(N)n3)[C@H]2SC1 [ONC0002085, cefotiam hydrochloride]	84.18%	–
Cc1ccc(-c2ncccn2)c(C(=O)N2C[C@H](COc3ccc(F)cn3)CC[C@H]2C)c1 [ONC0005570, filorexant]	73.84%	–
CC(C)c1ccc2c(c1)CC[C@H]1[C@](C)(CN)CCC[C@]21C [ONC0000210, lylamine]	63.87%	–
CN[C@H]1C[C@@H](N)[C@H](O)[C@@H](O[C@@H]2O[C@H](CO)[C@@H]3OC4(O[C@@H]3[C@@H]2O)O[C@H](C(N)CO)[C@H](O)[C@H](O)[C@H]4O)[C@@H]1O (stereo partly drawn) [ONC0004423, hygromycin b]	124.4%	–
O=C(Nc1ccc(S(=O)(=O)C(F)(F)F)cc1)C1=CCN(c2ncccc2C(F)(F)F)CC1 [ONC0002673, a784168]	70.55%	–
CC(=O)O[C@H]1C[C@@]2(C)[C@@H](C[C@@H](O)[C@H]3[C@@]4(C)CC[C@@H](O)[C@@H](C)[C@@H]4CC[C@@]32C)/C1=C(\CCC=C(C)C)C(=O)O [ONC0000509, fusidic acid]	64.62%	–
O=C(O)Cc1cccc(OCCCN(Cc2cccc(C(F)(F)F)c2Cl)CC(c2ccccc2)c2ccccc2)c1 [ONC0003534, gw3965]	116%	–
O=[N+]([O-])/C=C/c1ccc2c(c1)OCO2 [ONC0004710, mns 34methylenedioxynitrostyrene]	114.1%	–
CC(C)N(CCC(C(N)=O)(c1ccccc1)c1ccccn1)C(C)C (stereo not drawn) [ONC0000638, disopyramide phosphate]	113.8%	–
NCc1ccccc1Sc1ccccc1CO [ONC0005567, bipenamol]	100.4%	–
CC(=O)N[C@@H](CS)C(=O)O [ONC0000337, acetylcysteine]	67.99%	–
CCN(CC)CCOc1ccc2c(c1)C(=O)c1cc(OCCN(CC)CC)ccc1-2 [ONC0004179, tilorone]	120.4%	–
NCCCCCNCC12CC3CC(CC(C3)C1)C2 [ONC0004720, iem 1754 dihydrobromide]	114.3%	–
O=C1CC(=O)c2c(Cl)c(Cl)c(Cl)c(Cl)c21 [ONC0005190, tcid]	96.33%	–
c1cc2c(cc1[C@H]1OC[C@H]3[C@@H]1CO[C@@H]3c1ccc3c(c1)OCO3)OCO2 [ONC0004953, sesamin fagarol]	94.91%	–
C/C=C/C[C@@H](C)C(=O)[C@H]1C(=O)N[C@@H](C(C)C)C(=O)N(C)CC(=O)N(C)[C@@H](CC(C)C)C(=O)N[C@@H](C(C)C)C(=O)N(C)[C@@H](CC(C)C)C(=O)N[C@@H](C)C(=O)N[C@H](C)C(=O)N(C)[C@@H](CC(C)C)C(=O)N(C)[C@@H](CC(C)C)C(=O)N(C)[C@@H](C(C)C)C(=O)N1C [ONC0002268, valspodar]	56.22%	–
O=C(O)c1ccc2c(c1)nc(Nc1cccc(Cl)c1)c1ccncc12 [ONC0004933, cx4945 silmitasertib]	72.14%	–
CC1(C)O[C@@H]2C[C@H]3[C@@H]4CCC5=CC(=O)C=C[C@]5(C)[C@H]4[C@@H](O)C[C@]3(C)[C@]2(C(=O)CO)O1 [ONC0004126, desonide]	118%	–
O=C1NCCc2[nH]c(-c3ccncc3)cc21 [ONC0002632, pha767491]	69.18%	–
COC(=O)N[C@H](C(=O)N1CCC[C@H]1c1nc(-c2ccc3c(c2)O[C@@H](c2ccccc2)n2c-3cc3cc(-c4c[nH]c([C@@H]5CCCN5C(=O)[C@@H](NC(=O)OC)C(C)C)n4)ccc32)c[nH]1)C(C)C [ONC0001980, elbasvir]	84.49%	–
Cc1ccc(NC(=O)c2cccc(N(C)C)c2)cc1NC(=O)c1ccc(O)cc1 [ONC0003044, zm336372]	76.4%	–
Cc1ccc(S(=O)(=O)Nc2ccc3c(c2)c(C(=O)C(F)(F)F)cn3CC(=O)N[C@@H](CC(C)C)C(=O)O)cc1 [ONC0002700, ntrc824]	67.52%	–
NC(=O)OC[C@@H]1[C@H](NC(=O)/C(=N\OCC(=O)O)c2csc(N)n2)C(=O)N1S(=O)(=O)O [ONC0005332, carumonam]	121.8%	–
C#C[C@]1(O)CC[C@H]2[C@@H]3CCC4=CC(=O)CC[C@@H]4C3CC[C@@]21CC (stereo partly drawn) [ONC0000428, norgestrel]	73.78%	–
CNc1nc(C)nc(N[C@H]2CCC[C@@H](C(=O)NCc3ccc(C#N)cc3C(F)(F)F)C2)n1 [ONC0001234, gsk2256294a]	74.03%	–
O=C(Nc1cc2cc[nH]c2cn1)c1ccccc1 [ONC0004711, oac1]	138.9%	–

Look-ups from the entries so far.
For % viability, `CC(C)N(CCC(C(N)=O)(c1ccccc1)c1ccccn1)C(C)C` (stereo not drawn) [ONC0000638, disopyramide phosphate] has 113.8%
For % viability, `C/C=C/C[C@@H](C)C(=O)[C@H]1C(=O)N[C@@H](C(C)C)C(=O)N(C)CC(=O)N(C)[C@@H](CC(C)C)C(=O)N[C@@H](C(C)C)C(=O)N(C)[C@@H](CC(C)C)C(=O)N[C@@H](C)C(=O)N[C@H](C)C(=O)N(C)[C@@H](CC(C)C)C(=O)N(C)[C@@H](CC(C)C)C(=O)N(C)[C@@H](C(C)C)C(=O)N1C` [ONC0002268, valspodar] has 56.22%
For % viability, `NCc1ccccc1Sc1ccccc1CO` [ONC0005567, bipenamol] has 100.4%

Next part

Structure (SMILES)	% viability	% viability (Madurella mycetomatis metabolic activity at 2µM (%))
COc1ccc(S(=O)(=O)Nc2cccnc2Nc2ccc(O)cc2)cc1 [ONC0004681, abt751 e7010]	87.95%	–
Cc1ccc2cc(-c3c(C)ccc(C(=O)c4c(-c5ccccc5)n(C)n(-c5ccccc5)c4=O)c3N)ccc2n1 [ONC0001349, amgperk44]	93.26%	–
C[C@]12C[C@H](O)[C@H]3[C@@H](CCC4=CC(=O)CC[C@@]43C)[C@@H]1CC[C@@H]2C(=O)CO [ONC0002317, corticosterone]	76.74%	–
CCNC(=O)CCC/C=C\C[C@@H]1[C@@H](/C=C/[C@@H](O)CCc2ccccc2)[C@H](O)C[C@@H]1O [ONC0004864, bimatoprost]	75.33%	–
CCCCOc1ccc(CC/C=C2\SC(=O)N(CCN)C2=O)cc1 [ONC0001767, k145 hydrochloride]	126.7%	–
CCCCNc1nc(N)c2[nH]c(=O)n(Cc3ccc(OCCN(C)C)nc3)c2n1 [ONC0000193, dsr6434]	63.87%	–
O=C(CCCCCCC(=O)Nc1ccccc1)NO [ONC0004741, vorinostat saha mk0683]	83.83%	–
CCc1ccc2c(-c3cccc(Cl)c3)nc(=O)n(CC)c2n1 [ONC0004442, ym976]	108.3%	–
O=C(/C=C/c1ccc(O)c(O)c1)c1ccc(O)cc1O [ONC0005228, butein]	150.4%	–
CC[C@H]1OC(=O)C[C@@H](O)[C@H](C)[C@@H](O[C@@H]2O[C@H](C)[C@@H](O[C@H]3C[C@@](C)(O)[C@@H](O)[C@H](C)O3)[C@H](N(C)C)[C@H]2O)[C@@H](CC=O)C[C@@H](C)C(=O)/C=C/C(C)=C/[C@@H]1CO[C@@H]1O[C@H](C)[C@@H](O)[C@@H](OC)[C@H]1OC [ONC0003962, tylosin tartrate]	73.68%	–
c1cnc2cc3c(cc2n1)C1CNCC3C1 [ONC0004813, varenicline tartrate]	83.4%	–
NC[C@H]1O[C@H](O[C@H]2[C@H](O)[C@@H](O[C@H]3O[C@H](CO)[C@@H](O)[C@H](N)[C@H]3O)[C@H](N)C[C@@H]2N)[C@H](O)[C@@H](O)[C@@H]1O [ONC0000609, kanamycin a sulfate]	72.35%	–
C[C@H](Oc1ccc(S(C)(=O)=O)cc1C(=O)N1CCN(c2ncc(C(F)(F)F)cc2F)CC1)C(F)(F)F [ONC0002052, bitopertin]	75.15%	–
O=c1cc(-c2ccccc2)oc2cc(O)cc(O)c12 [ONC0005085, chrysin]	86.86%	–
COc1ccc2c(c1)c(C1=C(c3c[nH]c4ccccc34)C(=O)NC1=O)cn2CCCN(C)C [ONC0004541, go 6983]	67.37%	–
Oc1cc(O)cc(O)c1 [ONC0003870, phloroglucin]	78.3%	–
Cc1c2oc3c(C)ccc(C(=O)N[C@@H]4C(=O)N[C@H](C(C)C)C(=O)N5CCC[C@H]5C(=O)N(C)CC(=O)N(C)[C@@H](C(C)C)C(=O)O[C@@H]4C)c3nc-2c(C(=O)N[C@@H]2C(=O)N[C@H](C(C)C)C(=O)N3CCC[C@H]3C(=O)N(C)CC(=O)N(C)[C@@H](C(C)C)C(=O)O[C@@H]2C)c(N)c1=O [ONC0003335, dactinomycin] (I: T[dV]P[Sar][NMeV] / II: T[dV]P[Sar][NMeV]; ester I:1-I:C, II:1-II:C; linker I:N-II:N via Actinocin(9to1))	–	81.45%
O=c1sn(-c2cccc3ccccc23)c(=O)n1Cc1ccccc1 [ONC0005020, tideglusib]	111.3%	–
Cc1noc(-c2ccc(-c3ccc(CC(=O)O)cc3)cc2)c1NC(=O)O[C@H](C)c1ccccc1 [ONC0002098, am095]	63.96%	–
Nc1c2c(nc3ccccc13)CCCC2 [ONC0005283, tacrine hydrochloride]	70.06%	–
Cn1cc(C[C@@H](N)C(=O)O)c2ccccc21 [ONC0003940, indoximod]	84.46%	–
C/C(=C(\CCOP(=O)(O)O)SC(=O)c1ccccc1)N(C=O)Cc1cnc(C)nc1N [ONC0002833, benfotiamine]	112.3%	–
CC(C)=CCC/C(C)=C/CC/C(C)=C/CCC(O)OC/C=C(\C)CCC=C(C)C (stereo not drawn) [ONC0000430, geranylfarnesylacetate gefarnate]	66.04%	–
CC(C)(C)C(=O)OCC(=O)[C@H]1CC[C@H]2[C@@H]3CCC4=CC(=O)CC[C@]4(C)[C@H]3CC[C@]12C [ONC0002988, desoxycorticosteronepivalate]	86.89%	–
CC(=O)c1c(O)c(C)c(O)c2c1OC1=CC(=O)C(C(C)=O)C(=O)[C@@]12C (stereo partly drawn) [ONC0004971, usniacin dusnic acid]	81.71%	–
